From patent US20050014767A1, “Benzoxazole, benzothiazole, and benzimidazole derivatives for the treatment of cancer and other diseases” (priority 2003, published 2005)
Some entries share one result that the patent states for a list of compounds.

Key:
Assay type in all cases: cell-based, human
MDA-MB468 cells = assay: MTT assay, breast cancer cell line; settings: FIG. 11
From the text: (§1) Representative compounds of the invention were screened for anti-cancer activity by the procedures and methods described below. The following human cancer cell lines were used to detect anti-cancer activity. • The breast cancer cell line MDA-MB468 served to detect anti-breast cancer activity. • The prostate cancer cell line PC-3 was used to detect anti-prostate cancer activity • The non-small-cell lung cancer cell line A549 was used to detect anti-lung cancer activity • The pancreatic cancer cell line BX-PC-3 was used to detect anti-pancreatic cancer activity. • Cell lines were purchased from American Type Culture Collection (ATCC). Cell Culture conditions:
(§2) The cancer cell cultures were grown as recommended by the ATTC manuals. A549 cells and BX-PC-3 cells were grown in DME Dulbecco's modified Eagle's medium containing 4500 mg/L glucose; 4 mM L-glutamine; 10 U/ml Pen-G; 10 mcg/ml […] and 10% fetal calf serum (FCS). PC-3 and MDA-MB468 cells were grown in RPMI medium 1640 containing 2 mM L-glutamine; 10 U/ml Pen-G; 10 mcg/ml Streptomycin and 10% FCS. Cells were kept at 6% CO2 and 37° C. […]
(§3) On day five 10 μl of 5 mg/ml MTT dye was added to each well containing a cell culture. […] On day 6 the formazan crystals formed were solubilized and the resulting colored solution quantified using a scanning multiwell spectrophotometer at a wavelength of 595 nm. […]

PC-3 cells = assay: MTT assay, prostate cancer cell line; settings: FIG. 14
From the text: as §1, §2, §3

A549 cells = assay: MTT assay, non-small-cell lung cancer cell line; settings: FIG. 13
From the text: as §1, §2, §3

BX-PC-3 cells = assay: MTT assay, pancreatic cancer cell line; settings: FIG. 12
From the text: as §1, §2, §3

Measured: factor by which active concentrations are lower than those of Comparative Compound 4

Cc1nc2cc(-c3ccc(/C=C4\SC(=O)NC4=O)cn3)cc(C34CC5CC(CC(C5)C3)C4)c2o1 [Compound 1, 5-[6-(7-Adamantan-1-yl-2-methyl-benzoxazol-5-yl)-pyridin-3-ylmethylene]-thiazolidine-2,4-dione]
5-10: all assays above

O=C1NC(=O)/C(=C/c2ccc(-c3cc(C45CC6CC(CC(C6)C4)C5)c4ocnc4c3)nc2)S1 [Compound 2, 5-[6-(7-Adamantan-1-yl-benzoxazol-5-yl)-pyridin-3-ylmethylene]-thiazolidine-2,4-dione]
5-10: all assays above
